Publication PMC9531947, “Targeting A-kinase anchoring protein 12 phosphorylation in hepatic stellate cells regulates liver injury and fibrosis in mouse models” (eLife, 2022)
No constants are given. Whether binding was seen depends on the method and setting. Binding seen in cells or lysates may run through a third protein. A result given as binding can be weak or reduced; the word gives no strength.

Protein sequences, listed by entry. Tags and fused reporters are not part of them. Lines headed by an entry give the natural chain unless they say otherwise; changes in a name come on top.
UniProt Q9WTQ5: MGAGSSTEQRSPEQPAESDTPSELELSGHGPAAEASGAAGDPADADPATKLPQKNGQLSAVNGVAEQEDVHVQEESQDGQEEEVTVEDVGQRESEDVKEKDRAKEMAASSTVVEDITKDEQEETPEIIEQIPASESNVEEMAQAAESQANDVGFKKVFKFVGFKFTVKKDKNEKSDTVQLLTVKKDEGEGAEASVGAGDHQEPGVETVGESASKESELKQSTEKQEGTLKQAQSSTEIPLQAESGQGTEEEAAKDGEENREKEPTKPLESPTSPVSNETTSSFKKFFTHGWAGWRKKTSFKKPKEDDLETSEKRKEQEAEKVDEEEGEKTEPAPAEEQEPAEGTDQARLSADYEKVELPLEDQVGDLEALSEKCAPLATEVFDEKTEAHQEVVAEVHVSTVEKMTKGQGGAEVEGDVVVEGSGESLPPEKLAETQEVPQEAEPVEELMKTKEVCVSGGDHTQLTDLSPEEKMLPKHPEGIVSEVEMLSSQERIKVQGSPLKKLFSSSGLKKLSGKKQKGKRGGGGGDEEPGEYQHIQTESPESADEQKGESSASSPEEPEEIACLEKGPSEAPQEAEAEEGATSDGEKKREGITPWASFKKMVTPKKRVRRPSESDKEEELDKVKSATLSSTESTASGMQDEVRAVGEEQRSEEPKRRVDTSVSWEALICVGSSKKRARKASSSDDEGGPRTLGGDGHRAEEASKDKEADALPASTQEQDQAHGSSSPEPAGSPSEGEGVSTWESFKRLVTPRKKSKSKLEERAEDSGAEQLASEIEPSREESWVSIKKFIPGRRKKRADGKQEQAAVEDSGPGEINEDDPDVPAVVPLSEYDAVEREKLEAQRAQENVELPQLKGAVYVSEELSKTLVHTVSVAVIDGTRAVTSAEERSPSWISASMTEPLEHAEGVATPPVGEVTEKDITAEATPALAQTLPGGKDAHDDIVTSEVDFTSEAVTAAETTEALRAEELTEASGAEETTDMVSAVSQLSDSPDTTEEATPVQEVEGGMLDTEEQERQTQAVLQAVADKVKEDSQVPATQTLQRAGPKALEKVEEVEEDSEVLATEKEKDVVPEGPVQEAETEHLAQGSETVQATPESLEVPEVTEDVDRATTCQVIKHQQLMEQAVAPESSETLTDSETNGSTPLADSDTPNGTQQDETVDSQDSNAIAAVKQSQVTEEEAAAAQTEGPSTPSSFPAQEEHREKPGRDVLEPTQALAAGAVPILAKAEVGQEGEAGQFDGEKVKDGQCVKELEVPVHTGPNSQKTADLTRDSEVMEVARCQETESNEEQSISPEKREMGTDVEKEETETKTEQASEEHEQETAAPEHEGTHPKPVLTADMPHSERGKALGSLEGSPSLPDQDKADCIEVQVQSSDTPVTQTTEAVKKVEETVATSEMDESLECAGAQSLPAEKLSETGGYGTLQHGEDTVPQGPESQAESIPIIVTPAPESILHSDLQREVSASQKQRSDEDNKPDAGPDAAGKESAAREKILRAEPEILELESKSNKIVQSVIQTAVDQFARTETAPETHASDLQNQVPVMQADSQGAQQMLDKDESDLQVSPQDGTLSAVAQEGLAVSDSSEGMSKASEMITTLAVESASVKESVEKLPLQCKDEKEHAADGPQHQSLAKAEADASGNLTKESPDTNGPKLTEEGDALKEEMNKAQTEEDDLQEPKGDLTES

Columns and labels:
[1] = target: AKAP12 with its activation-responsive phospho-sites deleted (PDEL), mouse (mouse (endogenous locus in HSCs, edited)) (UniProt Q9WTQ5); assay: co-IP; culture-activated mouse HSCs, WT or CRISPR-edited (HDR); AKAP12-HSP47 co-immunoprecipitation-immunoblotting
[2] = target: AKAP12 with its activation-responsive phospho-sites deleted (PDEL), mouse (mouse (endogenous locus in HSCs, edited)) (UniProt Q9WTQ5); assay: proximity ligation; mouse liver sections (oil or CCl4; EV, PDEL or PMUT CRISPR), PLA co-stained with the HSC marker desmin
[3] = target: AKAP12 with its activation-responsive phospho-sites deleted (PDEL), mouse (mouse (endogenous locus in HSCs, edited)) (UniProt Q9WTQ5); assay: co-IP; mouse liver protein (oil or CCl4 mice; EV, PDEL or PMUT CRISPR AAV); 200 µg pre-cleared protein with 2 µg antibody; AKAP12 antibody and HSP47 blot, or HSP47 antibody and collagen blot; normal mouse IgG as negative control

binding [1]: binds | binding [2]: binds | binding [3]: binds
B1: heat-shock protein 47 (HSP47), mouse, endogenous (protein, UniProt P19324 18-417)
chain: AEVKKPLEAAAPGTAEKLSSKATTLAERSTGLAFSLYQAMAKDQAVENILLSPLVVASSLGLVSLGGKATTASQAKAVLSAEKLRDEEVHTGLGELLRSLSNSTARNVTWKLGSRLYGPSSVSFADDFVRSSKQHYNCEHSKINFRDKRSALQSINEWASQTTDGKLPEVTKDVERTDGALLVNAMFFKPHWDEKFHHKMVDNRGFMVTRSYTVGVTMMHRTGLYNYYDDEKEKLQMVEMPLAHKLSSLIILMPHHVEPLERLEKLLTKEQLKAWMGKMQKKAVAISLPKGVVEVTHDLQKHLAGLGLTEAIDKNKADLSRMSGKKDLYLASVFHATAFEWDTEGNPFDQDIYGREELRSPKLFYADHPFIFLVRDNQSGSLLFIGRLVRPKGDKMRDEL
